No constants are given. Whether binding was seen depends on the method and setting. For some assays here: In cells and extracts the contact can be indirect. Some binding calls cover weakened binding; strength is not graded here. For some assays here: Where a sequence is shown, tags or fusion partners need not be part of it.
Experiments:
[1] = biological target: T1, TAK1 (endogenous, human) (human) (UniProt O43318); assay: biotinylated peptide on NeutrAvidin beads, lysates of LPS-stimulated primary human macrophages
T1 sequence (looked up): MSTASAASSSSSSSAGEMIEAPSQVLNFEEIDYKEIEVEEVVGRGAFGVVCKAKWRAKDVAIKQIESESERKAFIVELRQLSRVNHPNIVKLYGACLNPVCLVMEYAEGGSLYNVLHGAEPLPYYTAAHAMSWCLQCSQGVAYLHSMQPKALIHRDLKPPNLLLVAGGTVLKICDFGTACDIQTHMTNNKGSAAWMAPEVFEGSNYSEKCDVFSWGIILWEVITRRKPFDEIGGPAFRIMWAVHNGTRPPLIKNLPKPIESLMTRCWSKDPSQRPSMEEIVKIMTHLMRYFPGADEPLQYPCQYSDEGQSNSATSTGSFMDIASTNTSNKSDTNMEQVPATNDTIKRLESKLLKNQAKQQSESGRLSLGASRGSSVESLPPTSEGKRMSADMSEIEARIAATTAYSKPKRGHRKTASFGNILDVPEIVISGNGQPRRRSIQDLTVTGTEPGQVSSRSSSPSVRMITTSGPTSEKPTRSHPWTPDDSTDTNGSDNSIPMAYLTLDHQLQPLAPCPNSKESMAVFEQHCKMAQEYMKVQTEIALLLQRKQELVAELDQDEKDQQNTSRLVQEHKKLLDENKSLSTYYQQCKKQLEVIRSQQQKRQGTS

By UniProt entry, the sequences of proteins in these tests, tags left out.
UniProt P58753: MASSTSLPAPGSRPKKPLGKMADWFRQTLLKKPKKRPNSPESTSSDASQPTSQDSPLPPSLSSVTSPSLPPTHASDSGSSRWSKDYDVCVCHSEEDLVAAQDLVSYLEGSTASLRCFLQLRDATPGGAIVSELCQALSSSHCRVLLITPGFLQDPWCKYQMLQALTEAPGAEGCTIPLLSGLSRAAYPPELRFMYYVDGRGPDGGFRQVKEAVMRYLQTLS

[2] = biological target: T1, TAK1 (endogenous, human) (human); assay: biotinylated peptide on NeutrAvidin beads, lysates of LPS-stimulated primary human macrophages, Western blot; within a complex
[3] = biological target: Mal^Flag (human Mal with Flag tag, overexpressed in HEK293T cells) (human) (UniProt P58753); assay: biotinylated peptide on NeutrAvidin beads, lysate of HEK293T cells overexpressing Mal^Flag, 300 mM NaCl and 1% Triton X100
[4] = biological target: T2, SLAMF1 (human, no tag stated; overexpressed in HEK293T cells or endogenous in primary human macrophages) (human) (UniProt Q13291); assay: co-precipitation, not described further (data not shown)
T2 sequence (looked up): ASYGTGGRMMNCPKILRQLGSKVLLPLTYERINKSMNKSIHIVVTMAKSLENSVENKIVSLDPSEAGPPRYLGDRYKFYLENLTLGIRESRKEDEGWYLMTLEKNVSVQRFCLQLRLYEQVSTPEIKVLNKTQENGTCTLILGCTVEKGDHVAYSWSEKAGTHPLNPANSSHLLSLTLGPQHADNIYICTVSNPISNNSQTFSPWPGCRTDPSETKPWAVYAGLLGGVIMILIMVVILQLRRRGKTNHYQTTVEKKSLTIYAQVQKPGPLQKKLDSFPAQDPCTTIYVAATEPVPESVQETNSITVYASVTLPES

[5] = biological target: Mal^Flag (human Mal with Flag tag, overexpressed in HEK293T cells) (human) (UniProt P58753); assay: biotinylated peptide on NeutrAvidin beads, lysate of HEK293T cells overexpressing Mal^Flag

Measured: binding

ITVYASVTLTGRQIKIWFQNRRMKWKK (C-terminally biotinylated) [Pep7-Penetratin-biotin (C-terminally biotinylated P7-Pen)]
binds: all assays above
